Assay results taken from publication doi:10.1101/2020.02.28.969832.
No constants are given. Whether binding was seen depends on the method and setting. Binding seen in cells or lysates may run through a third protein. Binding calls can cover weak binding; strength is not graded here. Where a sequence is shown, tags or fusion partners need not be part of it.

Tests used:
[1] = target: T1, FLAG-Msr1 (mouse) (mouse) (UniProt P30204); experiment: co-IP
T1 sequence: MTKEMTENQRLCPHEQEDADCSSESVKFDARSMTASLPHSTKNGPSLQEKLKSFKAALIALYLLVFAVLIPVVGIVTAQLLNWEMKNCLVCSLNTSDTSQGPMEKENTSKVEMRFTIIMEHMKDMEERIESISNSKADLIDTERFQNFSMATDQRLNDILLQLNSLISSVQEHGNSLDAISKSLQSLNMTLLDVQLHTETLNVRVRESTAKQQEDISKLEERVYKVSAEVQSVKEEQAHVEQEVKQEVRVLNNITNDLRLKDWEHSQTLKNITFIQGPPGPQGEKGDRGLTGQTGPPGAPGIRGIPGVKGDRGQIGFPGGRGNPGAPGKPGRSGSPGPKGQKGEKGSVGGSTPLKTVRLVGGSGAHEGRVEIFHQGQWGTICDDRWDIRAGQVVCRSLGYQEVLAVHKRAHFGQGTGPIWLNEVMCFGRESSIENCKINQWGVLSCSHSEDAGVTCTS

[2] = target: T2, FLAG-MSR1 (human), full-length (human) (UniProt P21757); experiment: co-IP
T2 sequence: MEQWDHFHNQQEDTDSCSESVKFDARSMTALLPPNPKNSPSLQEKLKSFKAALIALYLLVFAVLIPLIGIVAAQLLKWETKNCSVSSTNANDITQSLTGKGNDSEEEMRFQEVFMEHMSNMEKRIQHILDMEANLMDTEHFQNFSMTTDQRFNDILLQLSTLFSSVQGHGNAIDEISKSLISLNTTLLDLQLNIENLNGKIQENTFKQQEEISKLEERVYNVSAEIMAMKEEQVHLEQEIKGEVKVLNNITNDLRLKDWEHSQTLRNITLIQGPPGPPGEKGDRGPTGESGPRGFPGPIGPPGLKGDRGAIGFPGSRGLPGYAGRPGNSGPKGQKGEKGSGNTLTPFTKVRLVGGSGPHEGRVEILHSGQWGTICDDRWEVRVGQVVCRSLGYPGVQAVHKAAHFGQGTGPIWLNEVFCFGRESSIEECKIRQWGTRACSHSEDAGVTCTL

Substance: Myc-nsP1 (CHIKV LR2006-OPY1) (Chikungunya virus, strain LR2006-OPY1)
- binding [1]: binds
- binding [2]: binds
